For some assays here: HELM strings list residues between dots; [ac] is acetyl, [am] amide, other brackets name non-standard units. [ ]: non-standard residue; d: D form. The star is where a group is joined. pGlu = O=C1CC[C@@H](C(=O)O)N1; Octanoyl = CCCCCCCC(=O)*
Assays:
[1] = general procedure: Fmoc solid-phase peptide synthesis; chlorotrityl chloride resin (CTC); HBTU/HOBT, DIPEA; settings: purification step, sodium salt
[2] = general procedure: Fmoc solid-phase peptide synthesis; CTC; HBTU/HOBT, DIPEA; settings: whole synthesis, scale of the general procedure CTC resin 125 gr, sodium salt for ZEP3Na and ZEP4Na

## PEPTIDE1{[pGlu].N.W.T}$$$$V2.0
[1]
  final HPLC purity: 97.5%
  step yield: 80%

## [pGlu]NWK(Octanoyl)-OH (SMILES CCCCCCCC(=O)NCCCC[C@H](NC(=O)[C@H](Cc1c[nH]c2ccccc12)NC(=O)[C@H](CC(N)=O)NC(=O)[C@@H]1CCC(=O)N1)C(=O)O)
[1]
  final HPLC purity: 99.7%
  step yield: 71%

## [pGlu]NWT-OH
[2]
  final HPLC purity: 97.3%

From patent US12433830B2 (S.I.S. SHULOV INNOVATIVE SCIENCE LTD., priority 2019, dated 2025)
